These are yes or no findings as the source states them, for the method shown. Some results given as binding are weak or reduced against the parent protein; the word gives no strength. Sequences can lack the tags named with a protein.
Assays:
[1] = biological target: T1, AbrB from B. subtilis 168, full-length, His6-tagged (B. subtilis 168) (UniProt P08874); experiment: circular dichroism
T1 sequence: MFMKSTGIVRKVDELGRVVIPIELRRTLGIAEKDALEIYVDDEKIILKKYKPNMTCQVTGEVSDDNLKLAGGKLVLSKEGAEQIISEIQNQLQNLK

[2] = biological target: T1, AbrB from B. subtilis 168, full-length, His6-tagged (B. subtilis 168); experiment: native gel or EMSA

binding [1]: binds
binding [2]: binds
B1: AbrB antirepressor AbbA from B. subtilis 168, His6-tagged (natural protein, UniProt O31697 1-65, looked up)
chain: MRMSLIGERFTEEEQKLLLNILINHEYAIELLSSEINDIETGTKNVDGTTYKKLVTLYDRFRFEN

From doi:10.1101/2024.08.12.607668 (bioRxiv, 2024)
